From the supplement of paper PMC12889115
This is one part of the list. Values are raw readings; no control value is given beside them.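 In the initial screen, polymyxin B was used at a concentration that permeabilizes Salmonella's outer membrane but not its inner membrane. Maximum growth was set by DMSO wells with or without polymyxin B. Since plates varied, data were ranked per plate, and compounds giving the lowest OD600 advanced as hits.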

System: Salmonella enterica serovar Typhimurium SL1344
Assay: bacterial growth OD600 after 18 h with compound and polymyxin B; higher = more bacterial growth (less inhibition)
Settings: 50 µM, Mueller-Hinton broth

| Structure (SMILES) | bacterial growth OD600 (polymyxin B 0.75 µg/mL) | bacterial growth OD600 (polymyxin B 1 µg/mL) |
| --- | --- | --- |
| Cc1ccc(CNC(=O)C2CCCN(c3nc(C)c4ccc(S(C)(=O)=O)cc4n3)C2)cc1 (centres undefined) | 0.908 | – |
| O=C1CCC(C(=O)N2CCC(OCc3ccccc3)CC2)CN1Cc1ccccn1 (centres undefined) | – | 0.856 |
| CC#CCN1C(=O)NC(CCc2ccccc2)(C2CCN(Cc3ccc(CO)o3)CC2)C1=O (centres undefined) | 0.925 | – |
| CN(C)c1ncc(CN2CCOC(CCc3ccccc3)C2)s1 (centres undefined) | 0.978 | – |
| Cc1nccn1CCCNCc1c(C(=O)N2C[C@@H](C)O[C@@H](C)C2)nc2sccn12 | – | 0.645 |
| O=C(CSc1ccccn1)NC1CC(=O)N(CCc2ccc(F)cc2)C1 (centres undefined) | – | 1.05 |
| COc1cc(CN2CCN(Cc3cc(C)ccc3C)CC2CCO)cc(OC)c1 (centres undefined) | – | 0.902 |
| CSc1ccccc1C(=O)N1CCC(C(Cc2ccccc2F)N(C)C(=O)c2cccs2)CC1 (centres undefined) | -0.004 | – |
| COCCn1cnc2cc(NC(=O)C3CCCCC3)cc(C(=O)N3CCN(c4ccccc4)CC3)c21 | 0.758 | – |
